Some of these results come from one statement about several compounds together.
Biological target: T1, LasR-LBD (Pseudomonas aeruginosa, UniProt P25084)
T1 construct: His6; made in house; host or cells: E. coli BL21 (pETM-11)
Assay: Expression of LasR-LBD in presence of probe; covalent labeling by LC-MS and soluble protein by SDS-PAGE
Format: binding, P. aeruginosa
Settings: native LasR-LBD expressed in presence of probe; depending on conditions
Procedure: All MS analyses were performed on a LCQ Fleet mass spectrometer (Thermo Scientific) with an ESI source. Spectra were collected in positive ion mode and analyzed by Xcalibur and Promass software (Thermo Scientific). For LC/MS analyses a Surveyor Plus HPLC System (Thermo Scientific) was used, equipped with a Luna C18, 5 μm (150×4.6 mm) column at a flow rate of 0.5 mL/min, using a mobile phase linear gradient of 0.1% aqueous formic acid (solvent A) and CH3CN containing 0.1% formic acid (solvent B).
The expression of full length LasR was previously found to yield largely insoluble protein in the presence or absence of the native ligand, 3-oxo-C12-HSL (Bottomley, M. J., Muraglia, E., Bazzo, R. & Carfi, A. Molecular insights into quorum sensing in the human pathogen Pseudomonas aeruginosa from the structure of the virulence regulator LasR bound to its autoinducer. J Biol Chem 282, 13592-600 (2007)). Therefore, expression was performed using a strain transformed with a pETM-11 vector encoding for a shortened, His6-tagged LasR construct, LasR-LBD (ligand-binding domain), spanning residues Met-1 to Lys-173. The plasmid was transferred into E. coli BL21 and cells were incubated in 1 mL rich LB medium for 1 hour. […] The purification process was monitored by SDS-PAGE electrophoresis and the molecular mass of the purified proteins was confirmed by mass spectrometry. […]

Chains of the proteins cited; added tags and fusions are not shown. Residues count along the entry.
UniProt P25084, 1-173: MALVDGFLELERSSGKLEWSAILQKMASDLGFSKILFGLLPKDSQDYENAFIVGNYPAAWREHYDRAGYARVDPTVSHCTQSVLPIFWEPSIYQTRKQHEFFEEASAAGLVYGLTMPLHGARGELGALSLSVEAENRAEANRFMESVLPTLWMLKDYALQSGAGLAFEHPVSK

SMILES	soluble, non-labeled LasR-LBD
O=C(CCCCCCCCN=C=S)CC(=O)NC1CCOC1=O (centres unmarked) [itc-11, 11-isothiocyanato-3-oxo-N-(2-oxotetrahydrofuran-3-yl)undecanamide]	25-40%
O=C(CCCCCCCCCN=C=S)CC(=O)NC1CCOC1=O (centres unmarked) [itc-12, 12-isothiocyanato-3-oxo-N-(2-oxotetrahydrofuran-3-yl)dodecanamide]	25-40%
